Laboratory results from paper PMC3898117.
No constants are given. Whether binding was seen depends on the method and setting. For part of these data: Binding seen in cells or lysates may run through a third protein. Some entries that bind do so weakly or less than the wild type.

Protein sequences, listed by entry. Tags and fused reporters are not part of them. Lines headed by an entry give the natural chain unless they say otherwise; changes in a name come on top. Chains listed by the source or under a name are the forms on record and can include a tag or linker.
UniProt Q92973: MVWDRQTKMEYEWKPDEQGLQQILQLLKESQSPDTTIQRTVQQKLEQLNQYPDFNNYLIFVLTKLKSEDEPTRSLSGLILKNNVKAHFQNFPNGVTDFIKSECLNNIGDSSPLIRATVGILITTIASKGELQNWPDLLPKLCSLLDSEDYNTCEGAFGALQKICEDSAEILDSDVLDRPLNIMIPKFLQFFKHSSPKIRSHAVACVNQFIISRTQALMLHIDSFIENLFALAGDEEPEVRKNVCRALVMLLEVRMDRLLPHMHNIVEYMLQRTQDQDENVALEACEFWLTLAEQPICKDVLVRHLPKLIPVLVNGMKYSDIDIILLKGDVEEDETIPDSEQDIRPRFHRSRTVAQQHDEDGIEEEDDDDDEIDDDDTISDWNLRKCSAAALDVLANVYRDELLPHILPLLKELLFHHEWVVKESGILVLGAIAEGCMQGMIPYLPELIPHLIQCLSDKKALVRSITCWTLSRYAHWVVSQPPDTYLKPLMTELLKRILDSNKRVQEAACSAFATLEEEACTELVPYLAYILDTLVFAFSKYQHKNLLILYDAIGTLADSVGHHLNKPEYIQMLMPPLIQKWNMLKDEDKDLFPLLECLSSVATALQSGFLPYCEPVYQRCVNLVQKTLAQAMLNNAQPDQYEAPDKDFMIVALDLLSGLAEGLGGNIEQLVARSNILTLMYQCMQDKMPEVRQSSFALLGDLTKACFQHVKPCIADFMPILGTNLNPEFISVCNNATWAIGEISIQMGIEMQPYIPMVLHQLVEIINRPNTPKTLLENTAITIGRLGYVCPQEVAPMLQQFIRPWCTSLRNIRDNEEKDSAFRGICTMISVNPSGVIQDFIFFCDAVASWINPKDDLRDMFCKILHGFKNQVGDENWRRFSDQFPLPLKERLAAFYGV
UniProt Q9BTL3: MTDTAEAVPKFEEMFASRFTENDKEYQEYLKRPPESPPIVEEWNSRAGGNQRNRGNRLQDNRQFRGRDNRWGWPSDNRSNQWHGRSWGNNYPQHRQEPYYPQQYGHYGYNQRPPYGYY
RAM–GFP PY2AA (Q9BTL3, form named): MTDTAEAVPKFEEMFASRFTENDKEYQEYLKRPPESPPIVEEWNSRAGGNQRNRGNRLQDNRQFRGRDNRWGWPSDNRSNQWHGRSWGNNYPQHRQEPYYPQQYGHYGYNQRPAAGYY

Legend:
Myc–Kapβ2 = Myc–Kapβ2 (UniProt Q92973); test: co-IP; HeLa cells transfected with Myc-Kapβ2 and RAM-GFP, PY/AA mutants or GFP; precipitation from cell extracts with anti-Myc (9E10) antibodies; blots for Myc–Kapβ2 and RAM
[1] = target: GST–RAM WT (RNMT-activating mini-protein, wild type) (human) (UniProt Q9BTL3); test: pull-down; 0.5 nmol GST–RAM with 0.2 nmol Kapβ2 in TB buffer (20 mM Hepes pH 7.3, 10 mM potassium acetate, 2 mM magnesium acetate, 2 mM EGTA, 2 mM DTT, 20% glycerol); glutathione–Sepharose; Western blotting; both purified

Row | binding (Myc–Kapβ2) | binding [1] | Substance
1 | binds | – | RAM–GFP PY2AA (from UniProt Q9BTL3 1-118)
2 | binds | – | RAM–GFP WT (from UniProt Q9BTL3 1-118)
3 | – | binds | recombinant Kapβ2 (karyopherin β2) (from UniProt Q92973 1-898)
